These are yes or no findings as the source states them, for the method shown. Binding seen in cells or lysates may run through a third protein. Some results given as binding are weak or reduced against the parent protein; the word gives no strength. For some assays here: Sequences can lack the tags named with a protein.
Assays:
[1] = biological target: HA-USP25 (USP25^WT in PLVX-CMV-HA) (UniProt Q9UHP3); experiment: co-IP; cell lysates on HA resin (HA-USP25), immunoprecipitates blotted for TRIM25, HECTD3, NEDD4L and WWP2
53BP1 = 53BP1 (UniProt Q12888); experiment: co-IP; HEK293T cells untreated or treated with 5-Fu (20 uM) or IR; the mediator protein (MDC1) immunoprecipitated and blotted for USP25
RIF1 = RIF1 (UniProt Q5UIP0); experiment: as above
[2] = biological target: MDC1 (endogenous) (human (endogenous in HEK293T)) (UniProt Q14676); experiment: as above
[3] = biological target: T1, GST-MDC1 FHA-domain (human) (UniProt Q14676); experiment: pull-down; GST-MDC1 deletions purified on Glutathione-Sepharose beads, incubated 2 h at 4 °C with lysates of HEK293T cells transfected with USP25 and treated with 5-Fu (20 uM) or IR; washed with NETN buffer; western blot; only the target purified
T1 sequence: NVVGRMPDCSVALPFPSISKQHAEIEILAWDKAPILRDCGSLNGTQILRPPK

Chains of the proteins cited; added tags and fusions are not shown.
UniProt Q9UHP3: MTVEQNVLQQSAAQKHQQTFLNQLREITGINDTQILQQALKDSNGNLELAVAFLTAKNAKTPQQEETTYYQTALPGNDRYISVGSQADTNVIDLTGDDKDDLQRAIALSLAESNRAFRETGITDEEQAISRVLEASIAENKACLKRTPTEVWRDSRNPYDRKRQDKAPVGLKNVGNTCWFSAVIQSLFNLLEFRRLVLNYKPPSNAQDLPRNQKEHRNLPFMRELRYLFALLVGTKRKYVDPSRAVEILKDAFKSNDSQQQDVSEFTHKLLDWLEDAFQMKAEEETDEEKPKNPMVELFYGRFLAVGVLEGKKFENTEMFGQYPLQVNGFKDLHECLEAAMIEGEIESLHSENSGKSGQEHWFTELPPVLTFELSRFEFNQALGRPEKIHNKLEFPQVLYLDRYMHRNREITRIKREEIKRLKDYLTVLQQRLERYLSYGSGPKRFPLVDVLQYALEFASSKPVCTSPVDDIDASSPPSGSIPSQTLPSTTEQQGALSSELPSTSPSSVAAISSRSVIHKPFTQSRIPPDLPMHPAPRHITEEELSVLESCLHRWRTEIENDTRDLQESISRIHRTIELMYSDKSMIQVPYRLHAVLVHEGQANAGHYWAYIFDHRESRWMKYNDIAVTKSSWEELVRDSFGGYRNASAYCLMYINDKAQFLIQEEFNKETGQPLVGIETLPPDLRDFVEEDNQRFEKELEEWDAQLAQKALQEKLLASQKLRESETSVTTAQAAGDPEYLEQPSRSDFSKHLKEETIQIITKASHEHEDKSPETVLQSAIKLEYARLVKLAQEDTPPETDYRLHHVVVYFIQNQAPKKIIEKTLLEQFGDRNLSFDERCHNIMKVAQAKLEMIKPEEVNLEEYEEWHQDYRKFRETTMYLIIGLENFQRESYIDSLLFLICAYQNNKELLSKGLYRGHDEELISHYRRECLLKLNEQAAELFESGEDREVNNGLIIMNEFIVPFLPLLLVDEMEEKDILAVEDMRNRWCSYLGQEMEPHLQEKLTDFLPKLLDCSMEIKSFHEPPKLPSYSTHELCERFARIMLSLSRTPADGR
UniProt Q12888: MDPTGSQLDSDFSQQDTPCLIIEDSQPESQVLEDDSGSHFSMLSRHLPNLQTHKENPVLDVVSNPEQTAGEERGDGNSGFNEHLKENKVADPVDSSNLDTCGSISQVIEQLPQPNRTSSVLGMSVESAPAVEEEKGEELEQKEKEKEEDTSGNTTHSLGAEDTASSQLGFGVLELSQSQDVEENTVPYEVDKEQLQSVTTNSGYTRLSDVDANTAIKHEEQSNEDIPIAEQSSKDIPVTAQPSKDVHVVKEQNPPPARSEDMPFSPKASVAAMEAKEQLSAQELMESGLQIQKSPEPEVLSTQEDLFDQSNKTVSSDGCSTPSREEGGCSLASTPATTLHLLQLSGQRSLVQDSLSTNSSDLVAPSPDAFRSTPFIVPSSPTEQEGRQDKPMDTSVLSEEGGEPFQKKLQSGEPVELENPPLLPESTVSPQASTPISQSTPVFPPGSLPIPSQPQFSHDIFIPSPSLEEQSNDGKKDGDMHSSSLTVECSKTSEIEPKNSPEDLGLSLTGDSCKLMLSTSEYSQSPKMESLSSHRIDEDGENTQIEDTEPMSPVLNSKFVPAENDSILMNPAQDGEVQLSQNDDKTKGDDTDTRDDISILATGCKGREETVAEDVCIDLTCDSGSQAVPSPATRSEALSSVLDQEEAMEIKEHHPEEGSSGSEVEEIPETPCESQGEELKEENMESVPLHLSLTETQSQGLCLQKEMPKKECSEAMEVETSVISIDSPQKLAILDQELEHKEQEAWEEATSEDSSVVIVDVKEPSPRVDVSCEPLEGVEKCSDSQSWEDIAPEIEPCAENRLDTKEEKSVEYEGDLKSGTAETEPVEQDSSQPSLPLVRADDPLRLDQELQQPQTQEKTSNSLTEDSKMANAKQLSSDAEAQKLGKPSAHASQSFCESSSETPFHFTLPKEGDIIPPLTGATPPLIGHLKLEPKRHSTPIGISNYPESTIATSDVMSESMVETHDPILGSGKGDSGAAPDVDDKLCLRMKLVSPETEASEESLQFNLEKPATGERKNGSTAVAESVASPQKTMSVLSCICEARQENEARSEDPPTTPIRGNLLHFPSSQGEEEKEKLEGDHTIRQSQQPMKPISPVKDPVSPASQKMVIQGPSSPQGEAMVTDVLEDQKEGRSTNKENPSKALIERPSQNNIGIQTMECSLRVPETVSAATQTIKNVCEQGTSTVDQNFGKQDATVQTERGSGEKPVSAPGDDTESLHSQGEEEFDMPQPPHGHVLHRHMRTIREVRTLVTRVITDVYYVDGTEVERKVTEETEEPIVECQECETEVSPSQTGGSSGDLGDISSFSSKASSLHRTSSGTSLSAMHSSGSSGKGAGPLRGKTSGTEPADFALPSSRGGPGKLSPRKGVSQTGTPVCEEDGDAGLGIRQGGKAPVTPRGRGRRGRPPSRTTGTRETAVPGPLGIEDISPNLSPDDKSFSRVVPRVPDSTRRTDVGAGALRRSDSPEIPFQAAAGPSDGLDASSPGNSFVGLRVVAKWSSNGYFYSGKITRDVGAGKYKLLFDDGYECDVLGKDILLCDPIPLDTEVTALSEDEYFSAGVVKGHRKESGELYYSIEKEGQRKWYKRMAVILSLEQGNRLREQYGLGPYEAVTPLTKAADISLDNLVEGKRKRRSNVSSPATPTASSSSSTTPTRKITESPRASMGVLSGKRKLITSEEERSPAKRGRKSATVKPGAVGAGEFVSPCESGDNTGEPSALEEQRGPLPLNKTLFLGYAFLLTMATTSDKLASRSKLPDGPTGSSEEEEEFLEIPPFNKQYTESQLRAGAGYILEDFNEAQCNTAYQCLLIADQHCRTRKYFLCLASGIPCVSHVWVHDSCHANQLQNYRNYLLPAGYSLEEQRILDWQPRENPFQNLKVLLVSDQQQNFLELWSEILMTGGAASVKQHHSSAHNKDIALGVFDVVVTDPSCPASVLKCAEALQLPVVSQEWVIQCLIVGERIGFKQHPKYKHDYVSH
UniProt Q5UIP0: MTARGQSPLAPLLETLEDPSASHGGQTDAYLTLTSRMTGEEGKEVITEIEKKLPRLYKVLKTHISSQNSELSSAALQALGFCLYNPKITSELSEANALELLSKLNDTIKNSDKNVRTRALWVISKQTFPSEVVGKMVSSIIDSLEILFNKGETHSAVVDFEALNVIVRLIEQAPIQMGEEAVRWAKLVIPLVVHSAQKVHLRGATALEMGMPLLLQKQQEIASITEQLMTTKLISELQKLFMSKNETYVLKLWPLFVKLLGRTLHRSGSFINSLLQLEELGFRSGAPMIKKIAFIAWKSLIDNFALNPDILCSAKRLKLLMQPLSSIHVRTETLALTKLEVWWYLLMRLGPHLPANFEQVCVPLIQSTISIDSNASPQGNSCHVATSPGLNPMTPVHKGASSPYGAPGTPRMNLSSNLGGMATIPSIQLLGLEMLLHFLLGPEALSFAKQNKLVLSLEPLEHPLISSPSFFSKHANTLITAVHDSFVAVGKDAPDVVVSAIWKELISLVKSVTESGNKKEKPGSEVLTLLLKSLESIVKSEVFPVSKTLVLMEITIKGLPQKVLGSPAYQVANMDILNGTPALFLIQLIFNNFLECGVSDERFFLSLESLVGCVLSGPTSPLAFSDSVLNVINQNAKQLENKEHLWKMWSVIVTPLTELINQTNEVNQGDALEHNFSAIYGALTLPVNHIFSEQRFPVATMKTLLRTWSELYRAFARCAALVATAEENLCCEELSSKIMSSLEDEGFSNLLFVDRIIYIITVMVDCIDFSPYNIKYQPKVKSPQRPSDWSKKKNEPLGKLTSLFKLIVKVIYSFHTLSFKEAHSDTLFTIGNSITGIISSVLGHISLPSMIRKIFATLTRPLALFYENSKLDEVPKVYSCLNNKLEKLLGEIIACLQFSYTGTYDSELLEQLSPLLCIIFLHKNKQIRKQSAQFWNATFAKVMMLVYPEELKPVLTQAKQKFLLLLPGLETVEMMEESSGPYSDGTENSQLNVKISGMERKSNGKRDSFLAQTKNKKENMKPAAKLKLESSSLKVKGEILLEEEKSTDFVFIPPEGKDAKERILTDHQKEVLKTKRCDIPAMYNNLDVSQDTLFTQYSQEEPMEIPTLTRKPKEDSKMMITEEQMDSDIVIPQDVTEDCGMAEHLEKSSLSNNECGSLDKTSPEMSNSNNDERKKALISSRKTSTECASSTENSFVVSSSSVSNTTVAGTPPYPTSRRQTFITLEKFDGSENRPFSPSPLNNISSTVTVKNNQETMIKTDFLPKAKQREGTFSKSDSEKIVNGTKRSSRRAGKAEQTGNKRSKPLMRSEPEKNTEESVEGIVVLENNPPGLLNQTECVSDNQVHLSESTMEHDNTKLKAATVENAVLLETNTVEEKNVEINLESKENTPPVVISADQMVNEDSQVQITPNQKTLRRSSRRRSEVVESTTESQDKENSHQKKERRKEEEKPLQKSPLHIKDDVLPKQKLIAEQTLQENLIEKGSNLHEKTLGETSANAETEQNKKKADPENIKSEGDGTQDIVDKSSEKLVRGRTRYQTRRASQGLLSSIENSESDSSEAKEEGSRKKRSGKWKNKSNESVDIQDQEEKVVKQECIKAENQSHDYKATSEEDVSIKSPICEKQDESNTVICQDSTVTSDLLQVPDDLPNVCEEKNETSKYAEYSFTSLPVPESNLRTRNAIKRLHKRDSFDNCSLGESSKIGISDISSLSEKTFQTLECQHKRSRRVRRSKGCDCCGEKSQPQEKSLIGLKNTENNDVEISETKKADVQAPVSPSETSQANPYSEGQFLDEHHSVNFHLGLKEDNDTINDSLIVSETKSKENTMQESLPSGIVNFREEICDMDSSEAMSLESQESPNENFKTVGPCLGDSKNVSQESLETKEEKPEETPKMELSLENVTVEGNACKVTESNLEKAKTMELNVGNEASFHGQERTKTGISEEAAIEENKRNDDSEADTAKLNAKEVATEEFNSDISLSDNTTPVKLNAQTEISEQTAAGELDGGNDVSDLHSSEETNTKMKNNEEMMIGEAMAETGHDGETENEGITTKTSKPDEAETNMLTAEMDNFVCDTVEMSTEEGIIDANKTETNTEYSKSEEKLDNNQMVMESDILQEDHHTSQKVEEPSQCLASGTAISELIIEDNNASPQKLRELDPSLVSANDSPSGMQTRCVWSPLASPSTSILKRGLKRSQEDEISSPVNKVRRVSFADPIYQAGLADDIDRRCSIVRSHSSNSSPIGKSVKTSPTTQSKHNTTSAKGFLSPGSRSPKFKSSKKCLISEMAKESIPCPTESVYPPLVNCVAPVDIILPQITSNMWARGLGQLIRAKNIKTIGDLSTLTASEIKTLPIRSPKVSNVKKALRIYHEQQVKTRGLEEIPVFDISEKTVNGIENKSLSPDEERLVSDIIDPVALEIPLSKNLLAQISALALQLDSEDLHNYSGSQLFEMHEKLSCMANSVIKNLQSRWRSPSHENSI
UniProt Q14258: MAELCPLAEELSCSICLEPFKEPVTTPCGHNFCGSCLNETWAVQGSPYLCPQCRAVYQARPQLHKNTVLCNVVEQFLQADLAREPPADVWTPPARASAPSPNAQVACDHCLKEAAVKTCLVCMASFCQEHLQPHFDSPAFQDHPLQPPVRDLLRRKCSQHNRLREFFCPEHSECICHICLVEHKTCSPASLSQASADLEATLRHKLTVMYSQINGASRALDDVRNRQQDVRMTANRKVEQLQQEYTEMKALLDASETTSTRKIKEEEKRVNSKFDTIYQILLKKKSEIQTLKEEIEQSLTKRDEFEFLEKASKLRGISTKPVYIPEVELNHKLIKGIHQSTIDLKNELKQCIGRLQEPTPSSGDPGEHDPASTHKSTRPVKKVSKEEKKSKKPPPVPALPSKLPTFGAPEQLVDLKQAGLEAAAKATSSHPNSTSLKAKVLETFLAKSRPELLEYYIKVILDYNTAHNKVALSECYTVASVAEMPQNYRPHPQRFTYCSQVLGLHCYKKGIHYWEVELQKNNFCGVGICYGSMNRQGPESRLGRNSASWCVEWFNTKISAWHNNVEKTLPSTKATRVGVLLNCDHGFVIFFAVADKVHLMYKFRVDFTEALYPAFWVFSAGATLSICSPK

TRIM25 (from UniProt Q14258 1-630) (enzyme)
binding [1]: binds

USP25 (endogenous) (from UniProt Q9UHP3 1-1055) (enzyme)
binding (53BP1): no binding
binding (RIF1): no binding
binding [2]: binds

USP25^WT (transfected, for GST pull-down) (from UniProt Q9UHP3 1-1055) (enzyme)
binding [3]: no binding

Reference: publication PMC11267380, “USP25 Elevates SHLD2‐Mediated DNA Double‐Strand Break Repair and Regulates Chemoresponse in Cancer” (Advanced Science, 2024)
